Data as given in publication PMC7862700.
The list shows a part of the results, in another mix than the full data. At the low end of the ranking the order means little.

Tests used:
[1] = biological target: T1, FEV (UniProt Q99581); assay: DAPPL (digital affinity profiling via proximity ligation, sequencing); conditions: 10 mM Tris-HCl pH 7.5, 50 mM NaCl, 1 mM DTT, 4% glycerol, room temperature, 30 min; GST-TFs on glutathione beads, 16-mer random dsDNA library, 0.1% …; high values mean tight binding; double strand, one strand shown; scale: fold enrichment (6-mer frequency, TF over GST control)
T1 sequence: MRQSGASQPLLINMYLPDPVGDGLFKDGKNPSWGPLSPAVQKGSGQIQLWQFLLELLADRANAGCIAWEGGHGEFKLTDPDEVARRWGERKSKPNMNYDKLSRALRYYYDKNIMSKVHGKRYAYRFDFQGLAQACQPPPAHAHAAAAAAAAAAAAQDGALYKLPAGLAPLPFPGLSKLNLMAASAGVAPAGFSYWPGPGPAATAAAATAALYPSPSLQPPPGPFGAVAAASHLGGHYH

[2] = biological target: T2, ELF5 (UniProt Q9UKW6-2); assay: as above; conditions: 10 mM Tris-HCl pH 7.5, 50 mM NaCl, 1 mM DTT, 4% glycerol, room temperature, 30 min; GST-TFs on glutathione beads, 16-mer random dsDNA library, 0.1% …; high values mean tight binding; double strand, one strand shown; scale: fold enrichment (6-mer frequency, TF over GST control)
T2 sequence: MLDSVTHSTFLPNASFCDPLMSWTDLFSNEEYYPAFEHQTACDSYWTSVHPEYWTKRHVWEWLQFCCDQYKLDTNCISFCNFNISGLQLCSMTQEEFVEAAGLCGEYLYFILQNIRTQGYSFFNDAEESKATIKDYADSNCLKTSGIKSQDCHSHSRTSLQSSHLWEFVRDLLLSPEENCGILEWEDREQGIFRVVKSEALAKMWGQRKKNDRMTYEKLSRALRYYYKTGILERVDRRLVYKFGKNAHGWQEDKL

Row | Sequence | binding signal [1] | binding signal [2]
1 | TTCTTC | 1.66 | 2.02
2 | GCTCGC | 1.42 | 1.31
3 | TAAGGT | 0.995 | 1.05
4 | GCTTCG | 1.26 | 1.3
5 | AATCGA | 0.967 | 0.954
6 | TTCTCA | 1.3 | 1.23
7 | CGACTA | 1.31 | 1.34
8 | AATCAT | 1.1 | –
9 | CTTACG | 1.06 | –
10 | AGCTAA | 1.03 | 0.967
11 | CTGTAA | 0.996 | –
12 | AAGCTC | 1.14 | 1.07
13 | TCTCGC | 1.64 | –
14 | TACGAA | 1.29 | –
15 | TTAAGT | 1.11 | 1.12
16 | GCTGAT | 1.07 | 1.03
17 | TCCTTG | 1.21 | 1.95

Two entries drawn at random from those above:
Row | Sequence | binding signal [1] | binding signal [2]
9 | CTTACG | 1.06 | –
13 | TCTCGC | 1.64 | –

The list continues.

Row | Sequence | binding signal [1] | binding signal [2]
18 | CTGACT | 1.32 | 1.32
19 | ATTAAT | 1.16 | –
20 | TACTGG | 1.01 | 1.04
21 | TACGCT | 1.32 | –
22 | GAAAGA | 0.974 | 0.985
23 | CTAGGT | 1.07 | 1.01
24 | GTTTCG | 1.27 | 1.12
25 | AACTAA | 1.35 | 1.38
26 | TCTCAC | 1.47 | 1.37
27 | TCCGAC | 1.68 | –
28 | TTACAC | 1.24 | –
29 | TAACAA | 1.18 | 1.14
30 | ATCAAT | 1.05 | 0.975
31 | TACATT | 1.19 | –
32 | ATCATA | 1.07 | –
33 | TCACGC | 1.18 | 1.15
34 | TAGCGG | 1.12 | 1.12
